This passage reports cell viability results from the supplement of paper PMC6522484.

Molecules are shown by their SMILES. ± gives the standard deviation of the averaged measurements. For some of these results: What follows is the remainder of the data, with few or none of the lowest values. Only a part is listed here, and it is no random draw.

Common to all, as to test: cell viability (CellTiter-Glo) relative to plate median (fraction of plate median); higher = more viable cells
Experiment [1] has as its system DLD1. The conditions noted are these: 5 µM; treatment time 24 h; reporter: 7TFP. The procedure, abridged: (§1)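 On parallel plates, a Tecan F500 reader recorded either firefly luciferase or CellTiterGlo luminescence. The plates held colorectal cancer cells stably transduced with lentiviral TCF/Wnt firefly luciferase reporters (7TFP or TCF4/Wnt), seeded in 384-well format and treated 24 h later with library compounds at a final 5 µM for 24 h. Per-well signals were normalised to the plate median (webcellHTS2, additive, no log transformation), and two independent replicates were averaged.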

In experiment [2] the test system is HCT116. Particulars: 5 µM; treatment time 24 h; reporter: TCF4/Wnt. The gist of the method: as §1
The subject of experiment [3] is SW480. Particulars: 5 µM; treatment time 24 h; reporter: 7TFP. The gist of the method: as §1
For experiment [4], the system named is DLD1. The conditions noted are these: 10 µM, treatment time 24 h. The procedure, abridged:
(§2)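 Each value averages two independent replicates in which the well signal was normalised to the plate median (webcellHTS2, additive, without log transformation). The signal was firefly luciferase or CellTiterGlo luminescence, read on parallel plates with a Tecan F500. The cells were colorectal cancer lines with stable lentiviral TCF/Wnt firefly luciferase reporters in 384-well plates, dosed 24 h after seeding with kinase inhibitor library compounds at a final 10 µM for 24 h.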

Experiment [5] relates to HCT116. The conditions noted are these: 10 µM; treatment time 24 h; reporter: TCF4/Wnt. The gist of the method: as §2
Experiment [6] relates to SW480. Particulars: 10 µM; treatment time 24 h; reporter: 7TFP. The gist of the method:
as §2

For the molecule `CN1C2CCC1CC(OC(=O)C(O)c1ccccc1)C2` (configuration not stated), the figures for the cell viability in experiment [1], in experiment [2] and in experiment [3] were 1.1 ± 0.014, 1.09 ± 0.042 and 1.15 ± 0.028, respectively.
As for `Cc1ccccc1-n1c(Cn2nc(-c3cccc(O)c3)c3c(N)ncnc32)nc2cccc(C)c2c1=O`, the cell viability in experiment [4] (reporter: 7TFP) came out at 0.939 ± 0.0071; in experiment [4] (reporter: TCF4/Wnt) it was 0.987 ± 0.033; in experiment [5], 1.15 ± 0.2; in experiment [6] it was 0.967 ± 0.0085.
